Measurements from “University of Dundee, Small-Polar-MMV Screening Library” (2021), ChEMBL document CHEMBL3988442.

By UniProt entry, the sequences of proteins in these tests, tags left out.
UniProt E9BF75, entry or part of it: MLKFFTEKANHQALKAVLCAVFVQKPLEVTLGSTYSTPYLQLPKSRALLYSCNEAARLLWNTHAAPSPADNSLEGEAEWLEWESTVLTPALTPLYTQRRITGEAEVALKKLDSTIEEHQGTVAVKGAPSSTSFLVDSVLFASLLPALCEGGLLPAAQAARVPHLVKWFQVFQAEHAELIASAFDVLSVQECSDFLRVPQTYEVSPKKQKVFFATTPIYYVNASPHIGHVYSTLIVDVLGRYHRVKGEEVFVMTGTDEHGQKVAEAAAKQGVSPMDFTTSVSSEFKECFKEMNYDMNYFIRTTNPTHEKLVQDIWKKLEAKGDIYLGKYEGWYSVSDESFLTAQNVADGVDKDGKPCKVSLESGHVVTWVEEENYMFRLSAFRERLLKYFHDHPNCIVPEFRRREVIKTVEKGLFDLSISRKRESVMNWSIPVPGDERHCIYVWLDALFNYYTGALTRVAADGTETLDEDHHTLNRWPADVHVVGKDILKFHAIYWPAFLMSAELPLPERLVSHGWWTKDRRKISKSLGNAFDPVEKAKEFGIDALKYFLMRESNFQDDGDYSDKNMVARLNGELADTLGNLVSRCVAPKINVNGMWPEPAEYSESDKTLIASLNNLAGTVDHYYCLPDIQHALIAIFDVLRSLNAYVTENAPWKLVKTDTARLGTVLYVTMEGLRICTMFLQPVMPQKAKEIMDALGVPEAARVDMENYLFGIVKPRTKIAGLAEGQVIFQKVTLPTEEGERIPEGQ

Mtb heat-shock: 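Assay on Mycobacterium tuberculosis, filed only as a heat shock assay from Cornell; the read-out is not stated. The concentration is filed as 10 mM, unlikely as a test dose, so the dose is not known. Higher reads as stronger inhibition (inferred: compounds with an IC50 in retests scored well above the rest). Of about 69,000 compounds tested this way, about 930 (1.4%) reached 50% or more in at least one test.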
Mtb growth Cornell: 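Whole-cell assay for inhibitors of Mycobacterium tuberculosis growth, labelled Cornell in the record; the read-out is not stated. The concentration is filed as 10 mM, unlikely as a test dose, so the dose is not known. The record gives no direction; compounds strong in two other growth screens of this library score well above the rest, so higher reads as stronger inhibition. About 53,000 compounds were tested under these conditions; 1.7% (about 900) showed 50% or more at least once.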
LdMetRS: 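Methionyl-tRNA synthetase (putative), Leishmania donovani (UniProt E9BF75). Primary screen of methionyl-tRNA synthetase; the read-out is not stated. The test concentration is not given. Values are per cent inhibition. Size under these conditions: about 68,000 compounds, about 24 of them at 50% or above in at least one test.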

Results are percentages, as filed. How 0% and 100% were set is not recorded. Most values in the screen are low, and negative values occur. This is an unselected part of the compounds tested. A dash means the value is not listed here; it may have been measured.

Compound,Mtb heat-shock,Mtb growth Cornell,LdMetRS
Cc1ccc(CN2CCC3(CC(C(=O)NC4CCC4)=NO3)C2)o1 (stereo not drawn),-6.243%,4.285%,5.882%
COCCn1ccnc1-c1[nH]cnc1C,-11.39%,12.79%,12.42%
COCCN1CCN(c2cc(OC)ncn2)Cc2ccc(C)nc21,-6.292%,11.61%,15.25%
CC(C)(CO)CNC(=O)c1cc(-c2cc[nH]n2)n2ccccc12,-,-,-2.994%
O=C(O)C(F)(F)F.[H][C@]12CCC[C@@H](CNc3cnccn3)[C@@]1([H])CN(Cc1cccnc1)C2,-8.97%,-,-
CC1(Cc2ccc3c(c2)OCO3)CCCN(S(=O)(=O)N2CCCC2)C1 (stereo not drawn),4.408%,41.74%,1.742%
CN(C)C(=O)CC1CC2(CCN(Cc3cccs3)CC2)c2ccccc21 (stereo not drawn),-,-,10.09%
[H][C@@]12CCC(=O)N(CCc3c[nH]cn3)[C@]1([H])CCN(Cc1cccc(F)c1)C2,-24.21%,0.7608%,-
Cc1nc(C)c(CC(=O)N2CCC(Oc3ccccc3)CC2)c(=O)[nH]1,12.23%,-39.94%,19.16%
Cc1cc(C)n2c(CNCc3ccc(OC(F)F)cc3)cnc2n1,4.025%,-7.615%,13.28%
CN1CCCC(c2cccc(-c3cccc(C(F)(F)F)c3)n2)C1 (stereo not drawn),18.73%,30.4%,6.383%
N[C@@H]1CC[C@@H](NC(=O)c2ccccc2OC(F)(F)C(F)F)C1,-31.53%,-14.65%,6.407%
O=C(O)C(F)(F)F.[H][C@@]12CN(C(=O)c3ccncc3F)C[C@]1([H])OCCN2CCOC,5.058%,31.43%,-
CN1CCN(c2cc(Sc3cccs3)nc(N)n2)CC1CCO (stereo not drawn),-14.55%,11.99%,22.4%
O=C(NCCc1ccccn1)Nc1cc(C(F)(F)F)c[nH]c1=O,-1.423%,-,10.48%
Cn1ccc(C(=O)N2CCC(Cc3ccc4ncccc4c3)CC2)n1,-12.43%,-27.63%,2.326%
Cn1cc(CN2CCCC3(CCCCN3S(C)(=O)=O)C2)cn1 (stereo not drawn),-,-,3.333%
CCc1nc(C2CCCN2C(=O)CCNS(C)(=O)=O)no1 (stereo not drawn),-6.411%,11.66%,6.667%
CCOCC1CCN(C(=O)C(c2c(F)cccc2F)N(C)C)CC1 (stereo not drawn),-4.59%,-36.18%,2.618%
CN(Cc1cnn(C)c1)CC(O)c1ccc2c(c1)OCCCO2 (stereo not drawn),-6.928%,-22.53%,0%
Cc1n[nH]cc1CNC(C)c1cccc(N2CCCC2=O)c1.Cl (stereo not drawn),-22.52%,-28.36%,-
Cc1cccc(CO[C@@H]2CC[C@H]3[C@H]2OCCN3Cc2nccs2)n1,-,-,11.4%
O=C(CCc1cc2n(n1)CCCN(C(=O)[C@H]1CCCO1)C2)NC1CC1,7.612%,-4.349%,9.577%
CC(C)Oc1cccc(C(=O)C2CCCN(C(=O)c3ccoc3)C2)c1 (stereo not drawn),-12.99%,37.68%,4.7%
Cc1n[nH]c(C)c1NC(=O)C1CCCN(C(=O)NCC(C)C)C1 (stereo not drawn),19.58%,-0.6091%,6.775%
CN(CC(N)=O)CC1(c2ccc(Br)cc2)CC1,19.79%,-,16.57%
Cc1nc(N2CCOCC2)ncc1-c1cc(O)nc(N2CCCC2)n1,14.28%,-,-2.261%
CN(C)C(=O)CO[C@H]1CN(Cc2ccccc2)[C@@H]2CCCO[C@H]12,-,-,10.22%
[H][C@@]12CN(C(=O)C3CCOCC3)C[C@@]1([H])N(CC1CC1)C(=O)CO2,-5.392%,-23%,-
CC(C)CN1CCC2(C=C(C(=O)N(C)C)c3ccccc32)CC1.O=C(O)C(F)(F)F,41.83%,8.962%,-
Cn1ccc(C(=O)NC2CCC23CCN(C(=O)c2ccncc2)CC3)c1.O=C(O)C(F)(F)F (stereo not drawn),-38.65%,36.43%,-
COc1cccc2ccn(CCC(=O)N3CCCC(C(=O)O)C3)c12 (stereo not drawn),-18.45%,-33.24%,17.61%
CCN1CCc2c(cccc2NC(=O)CN(C)C2CCSC2)C1 (stereo not drawn),6.47%,-33.54%,7.576%
Cc1noc(C)c1C(=O)N1CC[C@H]2C[C@@H](c3nccs3)O[C@@H]2C1,-,-,11.59%
[H][C@]12CC[C@]([H])(CN(C(=O)Cc3cnc(C)[nH]c3=O)C1)N(CC1CCC1)C2,29.17%,-,-
CNC(=O)c1cc2c(nc1N(C)C)CCN(c1ncc(F)cn1)CC2.O=C(O)C(F)(F)F,41.2%,7.984%,-
O=C(NCCc1cnccn1)c1cccc(S(=O)(=O)NC2CCOC2)c1 (stereo not drawn),-8.619%,-,6.875%
Cc1cccnc1N1CC2(CCN(Cc3cccnc3)C2)C1.O=C(O)C(F)(F)F.O=C(O)C(F)(F)F.O=C(O)C(F)(F)F,-27.63%,-20.81%,-
Cc1nnc(N2C[C@H](Oc3ccccn3)[C@H]3OCCC[C@H]32)s1,-,-,6.767%
CC(C)C(C(N)=O)c1cccc(Cl)c1 (stereo not drawn),-15.78%,14.87%,16.11%
Cc1cccc(CN2CCC3(CCCN(C(=O)NC4CC4)C3)C2=O)n1.O=C(O)C(F)(F)F (stereo not drawn),-12.72%,-20.39%,-
O=C(O)C(F)(F)F.O=C(O)C(F)(F)F.[H][C@@]12CCCO[C@]1([H])[C@H](N(C)Cc1ccco1)CN(Cc1cccs1)C2,-15.27%,3.22%,-
CCn1ncnc1C1CC(=O)NCc2nc(N)sc21 (stereo not drawn),-11.78%,-21.96%,8.05%

Once more, the final 3:

Compound,Mtb heat-shock,Mtb growth Cornell,LdMetRS
Cc1cccc(CN2CCC3(CCCN(C(=O)NC4CC4)C3)C2=O)n1.O=C(O)C(F)(F)F (stereo not drawn),-12.72%,-20.39%,-
O=C(O)C(F)(F)F.O=C(O)C(F)(F)F.[H][C@@]12CCCO[C@]1([H])[C@H](N(C)Cc1ccco1)CN(Cc1cccs1)C2,-15.27%,3.22%,-
CCn1ncnc1C1CC(=O)NCc2nc(N)sc21 (stereo not drawn),-11.78%,-21.96%,8.05%